Our source for the binding values is article PMC12533155.

Protein sequences, listed by entry. Tags and fused reporters are not part of them. Lines headed by an entry give the natural chain unless they say otherwise; changes in a name come on top. Chains listed by the source or under a name are the forms on record and can include a tag or linker. Residues count along the entry.
PD-L1, endogenous (Q9NZQ7, residues 19-290): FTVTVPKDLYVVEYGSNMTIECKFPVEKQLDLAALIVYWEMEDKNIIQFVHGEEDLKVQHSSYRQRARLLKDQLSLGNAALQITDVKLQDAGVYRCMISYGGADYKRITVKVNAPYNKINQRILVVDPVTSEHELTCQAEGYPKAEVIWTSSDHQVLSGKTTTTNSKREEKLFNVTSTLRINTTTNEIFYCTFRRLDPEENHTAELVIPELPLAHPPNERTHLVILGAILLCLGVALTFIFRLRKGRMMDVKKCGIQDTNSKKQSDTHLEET
phosphorylation null mutant PD-L1 (S283A), overexpressed from plasmid (Q9NZQ7, form named): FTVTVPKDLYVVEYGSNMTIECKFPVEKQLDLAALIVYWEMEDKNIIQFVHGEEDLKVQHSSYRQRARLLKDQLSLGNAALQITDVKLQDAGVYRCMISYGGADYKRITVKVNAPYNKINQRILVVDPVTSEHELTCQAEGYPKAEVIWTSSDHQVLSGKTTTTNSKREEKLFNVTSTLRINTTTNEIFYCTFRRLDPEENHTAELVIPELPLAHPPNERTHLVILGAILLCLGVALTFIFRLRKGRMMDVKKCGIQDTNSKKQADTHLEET
UniProt P46934: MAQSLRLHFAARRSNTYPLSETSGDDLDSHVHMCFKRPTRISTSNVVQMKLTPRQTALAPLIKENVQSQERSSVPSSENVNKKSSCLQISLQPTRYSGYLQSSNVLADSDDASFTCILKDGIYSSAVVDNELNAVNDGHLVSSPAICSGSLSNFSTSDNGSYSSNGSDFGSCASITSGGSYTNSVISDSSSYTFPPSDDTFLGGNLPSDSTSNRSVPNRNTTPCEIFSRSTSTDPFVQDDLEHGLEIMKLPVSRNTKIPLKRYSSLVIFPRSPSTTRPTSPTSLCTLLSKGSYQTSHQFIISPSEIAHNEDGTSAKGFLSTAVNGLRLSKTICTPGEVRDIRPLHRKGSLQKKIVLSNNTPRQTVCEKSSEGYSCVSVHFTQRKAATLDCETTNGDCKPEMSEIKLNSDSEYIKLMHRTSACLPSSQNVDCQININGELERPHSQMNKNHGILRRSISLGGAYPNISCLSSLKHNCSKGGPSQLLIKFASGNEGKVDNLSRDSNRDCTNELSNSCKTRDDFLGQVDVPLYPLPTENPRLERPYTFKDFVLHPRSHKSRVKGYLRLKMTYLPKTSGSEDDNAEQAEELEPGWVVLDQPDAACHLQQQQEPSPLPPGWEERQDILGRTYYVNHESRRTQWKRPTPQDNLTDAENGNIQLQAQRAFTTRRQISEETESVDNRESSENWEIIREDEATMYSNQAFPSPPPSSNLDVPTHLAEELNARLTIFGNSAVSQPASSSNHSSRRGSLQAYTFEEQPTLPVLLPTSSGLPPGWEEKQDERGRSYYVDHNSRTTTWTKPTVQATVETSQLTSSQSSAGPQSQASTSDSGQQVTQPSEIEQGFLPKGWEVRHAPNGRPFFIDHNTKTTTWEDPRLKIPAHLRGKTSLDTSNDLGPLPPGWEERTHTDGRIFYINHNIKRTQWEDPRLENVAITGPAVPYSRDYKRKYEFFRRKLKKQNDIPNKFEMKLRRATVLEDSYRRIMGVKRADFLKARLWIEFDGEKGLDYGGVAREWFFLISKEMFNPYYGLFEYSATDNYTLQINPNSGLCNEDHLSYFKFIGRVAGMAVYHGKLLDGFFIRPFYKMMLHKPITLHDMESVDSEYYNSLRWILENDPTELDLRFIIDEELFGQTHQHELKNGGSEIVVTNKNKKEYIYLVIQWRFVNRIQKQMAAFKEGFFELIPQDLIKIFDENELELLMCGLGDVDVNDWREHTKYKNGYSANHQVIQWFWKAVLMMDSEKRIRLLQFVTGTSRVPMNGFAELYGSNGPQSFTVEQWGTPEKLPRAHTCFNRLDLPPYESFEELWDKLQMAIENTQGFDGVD
UniProt O00506: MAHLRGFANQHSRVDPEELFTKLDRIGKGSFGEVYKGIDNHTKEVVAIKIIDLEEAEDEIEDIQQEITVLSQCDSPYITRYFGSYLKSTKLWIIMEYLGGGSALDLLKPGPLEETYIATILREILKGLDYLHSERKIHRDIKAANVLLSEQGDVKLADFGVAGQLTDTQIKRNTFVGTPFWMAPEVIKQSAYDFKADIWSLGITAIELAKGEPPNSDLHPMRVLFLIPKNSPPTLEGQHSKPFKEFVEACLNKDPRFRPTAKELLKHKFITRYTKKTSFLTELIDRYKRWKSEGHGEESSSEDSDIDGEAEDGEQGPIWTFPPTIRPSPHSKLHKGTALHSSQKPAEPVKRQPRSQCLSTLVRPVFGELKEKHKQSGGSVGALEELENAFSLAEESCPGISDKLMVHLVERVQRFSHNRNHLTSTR

Results are given in words; binding and its absence hold for the method and conditions named. In cells and extracts the contact can be indirect. Some binding calls cover weakened binding; strength is not graded here.

For test [1], the target named is PD-L1, endogenous (human (endogenous in RKO)) (UniProt Q9NZQ7). Description: co-IP; endogenous proteins in RKO cells; reciprocal, IP with anti-STK25 antibody or anti-PD-L1 antibody, Western blot.
Test [2] has as its target NEDD4, endogenous (human (endogenous in RKO)) (UniProt P46934). Description: co-IP; endogenous proteins; IP with anti-NEDD4 antibody (Figure 5P) or anti-STK25 antibody (Figure 5Q), Western blot; cell line not stated.
Test [3] shares this target. Description: co-IP; anti-NEDD4 IP from RKO cells transfected with the indicated plasmids or siRNAs, Western blot (5S: STK25 knock-down, re-expression of STK25 wild type or K49R/D158N; 5T: PD-L1 knock-down, overexpression of PD-L1 wild type or S283A).
Test [4] addresses Serine/threonine protein kinase 25 (STK25), endogenous (human (endogenous in RKO)) (UniProt O00506). Description: co-IP; endogenous proteins in RKO cells; reciprocal, IP with anti-STK25 antibody or anti-PD-L1 antibody, Western blot.
For test [5] the target is unchanged. Description: co-IP; endogenous proteins; IP with anti-NEDD4 antibody (Figure 5P) or anti-STK25 antibody (Figure 5Q), Western blot; cell line not stated.

Regarding “Serine/threonine protein kinase 25 (STK25), endogenous (from UniProt O00506 1-426) (enzyme)”, the binding entry in test [1] and in test [2] was “binds” in each case.
With “wild-type PD-L1, overexpressed from plasmid (from UniProt Q9NZQ7 19-290) (ligand)”, in test [3], the binding entry is “binds”.
With “PD-L1, endogenous (from UniProt Q9NZQ7 19-290) (ligand)”, the binding result in test [4], in test [2], in test [5] and in test [3] was “binds” each time.
Turning to “NEDD4, endogenous (from UniProt P46934 1-1319) (enzyme)”, the binding entry in test [5] is recorded as “binds”.
On to “phosphorylation null mutant PD-L1 (S283A), overexpressed from plasmid (from UniProt Q9NZQ7 19-290) (ligand)”, for which the binding entry in test [3] is listed as “binds”.
